Values of other authors, collected in patent US20230220005A1, “S100A8-INHIBITING PEPTIDE AND DISEASE THERAPEUTIC AGENT CONTAINING SAME” (TOKYO WOMEN'S MEDICAL UNIVERSITY, priority 2020, published 2023).
At least one compound was matched to its structure with a doubt left.

System: subcutaneous tumor
Conditions: Non-Patent Literature 3; cited from earlier work

CCCCCC/C=C\CCCCCCCCCC(=O)N[C@H]1[C@H](OC[C@H]2O[C@H](OP(=O)(O)O)[C@H](NC(=O)CC(=O)CCCCCCCCCCC)[C@@H](OCCCCCCCCCC)[C@@H]2O)O[C@H](COC)[C@@H](OP(=O)(O)O)[C@@H]1OCC[C@@H](CCCCCCC)OC [Eritoran]
development of a subcutaneous tumor: remarkably suppresses the development of a subcutaneous tumor
recruitment of myeloid cells and tumor angiogenesis: inhibits both the recruitment of myeloid cells and tumor angiogenesis
